Inconclusive results, whose numbers are uncertain, are shown with a selection of clear calls. Potencies beside an inconclusive call are fits to weak or partial responses and may not hold up. Calls of active or inactive are those of the source. The calls were made as follows: active = hit-call score of the fitted dose curve at least 0.9, where 1 is the maximum; inconclusive = response in the unintended direction; inactive = score below 0.9.
molecular target: Estrogen receptor (Homo sapiens) + Estrogen receptor beta (Homo sapiens) (UniProt P03372+Q92731); test: OT_ER_ERaERb_0480: Odyssey Thera (OT) 8-hour HEK293T Protein-Complementation Assay for Estrogen Receptor-alpha/-beta Heterodimer (AID 2283352)
Protocol: OT_ER_ERaERb_0480 is a cell-based assay that uses HEK293T, a human kidney cell line, with measurements taken at 8 hours after chemical dosing in a 384-well plate.OT_ER_ERaERb_0480 is one of one assay component(s) measured or calculated from the OT_ER_ERaERb_0480 assay. It is designed to make measurements of protein fragment complementation, a form of binding reporter, as detected with fluorescence intensity signals by Protein-fragment Complementation technology.Data from the assay component OT_ER_ERaERb_0480 was analyzed into 1 assay endpoint. This assay endpoint, OT_ER_ERaERb_0480, was analyzed in the positive analysis fitting direction relative to DMSO as the negative control and baseline of activity. Using a type of binding reporter, measures of receptor for gain-of-signal activity can be used to understand the binding at the pathway-level as they relate to the gene ESR1 and ESR2. Furthermore, this assay endpoint can be referred to as a primary readout, because the performed assay has only produced 1 assay endpoint. To generalize the intended target to other relatable targets, this assay endpoint is annotated to the nuclear receptor intended target family, where the subfamily is steroidal.
Protein-fragment complementation assay, or PCA, is a method for the identification and quantification of protein-protein interactions. In the PCA, the proteins of interest ("bait" and "prey") are each covalently linked to fragments of a third protein (e.g. DHFR, which acts as a "reporter"). Interaction between the bait and the prey proteins brings the fragments of the reporter protein in close proximity to allow them to form a functional reporter protein whose activity can be measured. […] Fluorescent signal in the basal state of the assay is very low and is primarily punctuate and cytoplasmic. Modulation of this assay is quantified as an increase in mean fluorescence intensity in the nucleus (for agonists) or in the nucleus and cytoplasm (antagonists) relative to vehicle controls, and can be quantified on a high content imaging device or a laser scanning cytometer. The latter instrument is favored for this assay because of the rapid mode of data acquisition, the ability to acquire data from the entire cell population in a well (as opposed to a fraction of the well on the high content devices) and the larger dynamic range typically achieved with this instrument. To assess sensitivity of the ER alpha/ER beta LBD assay to ligand, cells were treated with the ER agonist 17- beta-estradiol (E2) in 10-point concentration- response format for 8 hours and monitored response on a laser scanning plate cytometer (Acumen eX3; TTP Lab Tech).

Protein sequences, listed by entry. Tags and fused reporters are not part of them.
UniProt P03372, whole entry, looked up: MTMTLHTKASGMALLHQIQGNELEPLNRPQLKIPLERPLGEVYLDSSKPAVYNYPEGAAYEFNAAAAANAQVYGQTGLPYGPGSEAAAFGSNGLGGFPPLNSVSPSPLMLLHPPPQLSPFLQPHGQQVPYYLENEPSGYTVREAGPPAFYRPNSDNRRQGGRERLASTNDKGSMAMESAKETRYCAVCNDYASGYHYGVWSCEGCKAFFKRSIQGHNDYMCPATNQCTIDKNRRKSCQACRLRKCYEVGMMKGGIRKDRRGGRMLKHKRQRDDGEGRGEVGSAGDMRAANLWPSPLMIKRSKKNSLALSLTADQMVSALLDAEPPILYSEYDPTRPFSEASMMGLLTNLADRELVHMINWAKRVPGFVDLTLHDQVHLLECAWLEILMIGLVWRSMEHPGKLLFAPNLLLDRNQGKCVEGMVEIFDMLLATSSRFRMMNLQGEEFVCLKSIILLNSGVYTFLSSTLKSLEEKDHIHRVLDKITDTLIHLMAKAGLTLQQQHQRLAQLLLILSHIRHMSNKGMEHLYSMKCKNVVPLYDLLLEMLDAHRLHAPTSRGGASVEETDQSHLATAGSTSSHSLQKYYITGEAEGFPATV
UniProt Q92731, whole entry, looked up: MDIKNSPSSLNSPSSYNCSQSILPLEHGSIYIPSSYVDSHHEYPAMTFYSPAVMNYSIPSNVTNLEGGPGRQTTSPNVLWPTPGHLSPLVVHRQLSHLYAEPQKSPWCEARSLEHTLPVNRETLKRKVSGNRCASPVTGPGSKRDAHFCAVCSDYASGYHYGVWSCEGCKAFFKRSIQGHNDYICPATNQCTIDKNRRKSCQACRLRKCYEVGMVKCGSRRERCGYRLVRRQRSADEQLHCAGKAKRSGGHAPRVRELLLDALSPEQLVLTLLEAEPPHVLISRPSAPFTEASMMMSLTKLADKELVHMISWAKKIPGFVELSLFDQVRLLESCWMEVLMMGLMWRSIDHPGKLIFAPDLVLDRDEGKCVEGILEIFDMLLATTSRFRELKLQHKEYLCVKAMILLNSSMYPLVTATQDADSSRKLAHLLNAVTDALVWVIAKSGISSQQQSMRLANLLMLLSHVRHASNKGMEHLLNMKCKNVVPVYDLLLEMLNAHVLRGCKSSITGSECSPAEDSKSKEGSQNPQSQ

SMILES | AC50 | outcome
Cc1cc2c(cc1C(F)(F)F)N(C(=O)Nc1ccc(Oc3cccnc3C)nc1)CC2 | inconclusive: 2.13 µM | 
O=C(OCc1ccccc1)c1ccccc1O | active: 46 µM | 
O=C(O)c1cccc(C(=O)O)n1 |  | inactive
O=C(C(Cl)Cl)N1CCOC12CCCCC2 | inconclusive: 50 µM | 
NC(=O)c1ccccc1O | inconclusive: 50 µM | 
O=c1[nH]cc(F)c(=O)[nH]1 |  | inactive
CN(C)c1ccc(N=Nc2ccccc2C(=O)O)cc1 | inconclusive: 50 µM | 
CN(C[C@@H](CC[N+]12CCC(C3CCCCC3)(CC1)CC2)c1ccc(Cl)c(Cl)c1)C(=O)c1cc(C(F)(F)F)cc(C(F)(F)F)c1 | inconclusive: 8.3 µM | 
CN(C)c1ccc(C(=C2C=CC(=[N+](C)C)C=C2)c2ccc(N(C)C)cc2)cc1 | inconclusive: 1.33 µM | 
CC1=CC[C@H]2C[C@@H]1C2(C)C |  | inactive
NCCN1CCNCC1 | inconclusive: 50 µM | 
CCCCCOC(=O)COc1cc(N2C(=O)C3=C(CCCC3)C2=O)c(F)cc1Cl | inconclusive: 50 µM | 
COCCOCCC[Si](C)(O[Si](C)(C)C)O[Si](C)(C)C | active: 50 µM | 
CNCc1cc(F)ccc1Oc1ccc(Cl)c(Cl)c1 | inconclusive: 50 µM | 
CCCCCCCC/C=C\CCCCCCCC(=O)OCCO | inconclusive: 25 µM | 
CCOC(=O)O[C@H](C)OC(=O)c1ccc2c(c1)cc(C(=O)NC1CCN(C(C)C)CC1)n2Cc1cc(-c2ccc(Cl)s2)on1 | inconclusive: 11.6 µM | 
CCCCCCCC[N+](C)(CCCCCCCC)CCCCCCCC |  | inactive
CCO[Si](C)(OCC)OCC | inconclusive: 50 µM | 
O=C(O)CS | inconclusive: 50 µM | 
CO[Si](C)(C)OC |  | inactive

SMILES | AC50 | outcome
C1COCCN1 |  | inactive
CCCCCCOC(=O)c1ccccc1 |  | inactive
Oc1ccc2ccccc2c1N=Nc1ccccc1 | inconclusive: 11.8 µM | 
CC(=O)OCCOC(C)=O |  | inactive
CC(C)(C)c1cc(C(C)(C)C)c(O)c(C(C)(C)C)c1 | active: 50 µM | 
C=C1C2CCC(C2)C1(C)C (stereo not given) |  | inactive
NC(=O)N=NC(N)=O | inconclusive: 50 µM | 
COC(=O)c1ccc(C(=O)OC)cc1 |  | inactive
Cc1ccc(S(=O)(=O)NCl)cc1 | inconclusive: 7.61 µM | 
CCCCCCC1CCC(=O)O1 (stereo not given) | inconclusive: 51 µM | 
CC(C)(O)c1ccc(CNC(=O)c2cccnc2Oc2ccc3nonc3c2)cc1 | inconclusive: 50 µM | 
CC(C)CCCCCCc1ccc(OCCOCCO)cc1 | active: 33.8 µM | 
CCCCCCC(CCCCCCCCCCC(=O)OCC(COC(C)=O)OC(C)=O)OC(C)=O (stereo not given) | inconclusive: 25 µM | 
CC(C)(C)c1cc(/C=C2\SC(N)=NC2=O)cc(C(C)(C)C)c1O | inconclusive: 9.95 µM | 
O=c1[nH]sc2ccccc12 | inconclusive: 50 µM | 
CC(=O)OC(C)(C)C |  | inactive
CC1(C)[C@@H]2CC[C@@]1(C)C(=O)C2 |  | inactive
COC(=O)c1ccccc1O |  | inactive
OC(Cn1cncn1)(Cn1cncn1)c1ccc(F)cc1F | inconclusive: 15.4 µM | 
CCCOC(=O)c1ccc(O)cc1 | active: 16.7 µM | 

Compounds listed so far containing a halogen (9):
SMILES | AC50 | outcome
Cc1cc2c(cc1C(F)(F)F)N(C(=O)Nc1ccc(Oc3cccnc3C)nc1)CC2 | inconclusive: 2.13 µM | 
O=C(C(Cl)Cl)N1CCOC12CCCCC2 | inconclusive: 50 µM | 
O=c1[nH]cc(F)c(=O)[nH]1 |  | inactive
CN(C[C@@H](CC[N+]12CCC(C3CCCCC3)(CC1)CC2)c1ccc(Cl)c(Cl)c1)C(=O)c1cc(C(F)(F)F)cc(C(F)(F)F)c1 | inconclusive: 8.3 µM | 
CCCCCOC(=O)COc1cc(N2C(=O)C3=C(CCCC3)C2=O)c(F)cc1Cl | inconclusive: 50 µM | 
CNCc1cc(F)ccc1Oc1ccc(Cl)c(Cl)c1 | inconclusive: 50 µM | 
CCOC(=O)O[C@H](C)OC(=O)c1ccc2c(c1)cc(C(=O)NC1CCN(C(C)C)CC1)n2Cc1cc(-c2ccc(Cl)s2)on1 | inconclusive: 11.6 µM | 
Cc1ccc(S(=O)(=O)NCl)cc1 | inconclusive: 7.61 µM | 
OC(Cn1cncn1)(Cn1cncn1)c1ccc(F)cc1F | inconclusive: 15.4 µM | 

— PubChem BioAssay (EPA / NIEHS)
